We go through 65 molecules from PubChem BioAssay AID901 (National Center for Advancing Translational Sciences (NCATS), 2007).

Some of the results follow. These are further read-outs of the screen, such as a control signal, another cell line or another target. No call is given for them. Compounds called inactive in the main read-out are mostly missing here. The note in brackets gives the kind of curve behind each potency; many fits are weak.

The nature of the test: qHTS Assay for Identifying the Cell-Membrane Permeable IMPase Inhibitors. The conditions noted are these: CHO-M1 cells, IP1 accumulation, HTRF TR-FRET ratio; measured here: donor channel 620 nm AC50.
On to `CC1=C(C(=O)NCc2ccccc2)C(c2cccs2)n2ncnc2N1` (stereo not given), for which the AC50 is 5.01 µM [falling, partial curve, poor fit].

Consider `CCOc1ccc(NC(c2ccc(Cl)cc2)c2nnc(-c3cccc(F)c3)o2)cc1` (stereo not given), for which the AC50 is 4.47 µM [falling, partial curve].

With `COc1cccc(CNCCc2c[nH]c3ccccc23)c1OCc1ccccc1F`, the concentration at half-maximal activity (AC50) is 31.6 µM [rising, single point].

`CCCCNC(=O)CSc1nc(-c2ccc(OC)cc2)cc(C(F)(F)F)n1`: the AC50 was 0.282 µM [falling, full curve].

With `CCOC(=O)CN(Cc1ccccc1)S(=O)(=O)c1ccc(NC(C)=O)cc1`, the AC50 was 0.0126 µM [rising, partial curve, poor fit].

As to `COC(=O)c1c(NC(=O)c2ccoc2C)sc2c1CCC2`, the AC50 is 31.6 µM [rising, single point].

Regarding `N#CCCn1nnc2ccccc21`, the AC50 was 0.631 µM [falling, full curve, poor fit].

On to `CCC(=O)Nc1nnc(Cc2ccccc2)s1`, for which the concentration at half-maximal activity (AC50) is 0.282 µM [rising, full curve].

`CCCCc1c(C)nn(-c2nnc3c4ccccc4n(CC)c3n2)c1C`: the AC50 was 6.31 µM [rising, single point].

`CC(=O)c1c(C)[nH]c(C(=O)N2CCc3ccccc32)c1C`: the AC50 is 12.6 µM [falling, single point].

In the case of `CN(C)c1cc2c(c(N(C)C)c1)C(=O)c1ccccc1C2=O`, the AC50 was 12.6 µM [falling, single point].

For `O=C(c1ccco1)c1cc2c(ccc3ccccc32)oc1=O`, the AC50 is 1.58 µM [falling, partial curve].

Take `COc1ccc(OCC(=O)Nc2ccc(S(=O)(=O)Nc3cc(C)nc(C)n3)cc2)cc1`: the AC50 is 0.501 µM [falling, full curve].

Regarding `CCOCCn1c(CN2CCC(Cc3ccccc3)CC2)nc2c1c(=O)n(C)c(=O)n2C`, the concentration at half-maximal activity (AC50) is 0.00501 µM [rising, full curve, poor fit].

On to `Cn1c(=O)[nH]c2ncn(C)c2c1=O`, for which the half-maximal activity concentration (AC50) is 31.6 µM [falling, single point].

As for `CCOC(=O)C1CCCN(C(=O)c2cc(-c3ccccc3)on2)C1` (stereo not given), the AC50 is 2.82 µM [falling, partial curve, poor fit].

`Cc1onc(-c2ccccc2Cl)c1C(=O)Nc1nnc(-c2ccc(Br)cc2)s1`: the AC50 was 0.0355 µM [rising, full curve, poor fit].

For the molecule `O=C(NCC1CCCO1)c1ccc(NC(=O)C2CC=CCC2C(=O)O)cc1` (stereo not given), the AC50 was 0.631 µM [falling, full curve, poor fit].

For the molecule `Nc1ccc(Nc2ccncc2[N+](=O)[O-])cc1`, the AC50 was 10 µM [falling, partial curve, poor fit].

`COc1ccc(C(=O)NCc2nnc(SCC(=O)NCc3ccc(F)cc3)o2)cc1`: the AC50 was 12.6 µM [falling, single point].

As for `COc1ccc(S(=O)(=O)N2CCCC(C(=O)NCc3ccncc3)C2)cc1Cl` (stereo not given), the AC50 is 2.82 µM [rising, single point].

Turning to `C=CCN1C(c2ccccc2)=CS/C1=C(\C#N)c1nnc2n1CCCCC2`, the AC50 was 3.98 µM [falling, full curve, poor fit].

Take `O=C(Nc1cccc(Cl)c1Cl)C1CCN(c2ncccn2)CC1`: the AC50 is 15.8 µM [falling, single point].

For the molecule `CN(C)[C@@H]1C(=O)C(C(N)=O)=C(O)[C@]2(O)C(=O)C3=C(O)c4c(O)ccc(Cl)c4[C@H](O)[C@H]3C[C@@H]12`, the AC50 is 2.51 µM [rising, single point].

Turning to `CC(=O)Nc1ccc(N2C(C(C)=O)=NN(c3ccc(Cl)cc3)C2c2sccc2C)cc1` (stereo not given), the concentration at half-maximal activity (AC50) was 0.158 µM [falling, full curve].

For the molecule `Cc1ccc(CSC2=NCCN2C(=O)c2ccco2)cc1`, the AC50 is 0.316 µM [rising, full curve].

With `CCOC(=O)CSc1nnc(C)n1N`, the AC50 is 31.6 µM [falling, single point].

With `O=C(COc1ccc(S(=O)(=O)N2CCCC2)cc1Cl)NCc1ccco1`, the AC50 is 3.16 µM [falling, partial curve].

On to `CCOC(=O)N1CCN(c2cc(NCCC(=O)O)c3c4c(onc24)-c2ccccc2C3=O)CC1`, for which the AC50 was 12.6 µM [falling, partial curve].

Turning to `CCCn1nnc(NC(=O)c2cc(Br)ccc2OC)n1`, the AC50 is 17.8 µM [falling, single point].

Turning to `CCOc1ccc(/C(O)=C2\C(=O)C(=O)N(c3cc(C)on3)C2c2ccccc2OC)cc1` (stereo not given), the AC50 is 15.8 µM [rising, single point].

Take `CC1(C(=O)NC2CCCC2)CCC(=O)N1Cc1ccccc1` (stereo not given): the AC50 is 0.316 µM [rising, partial curve, poor fit].

On to `Cc1ccccc1-c1nnc(SCC(=O)N2CCCc3ccccc32)o1`, for which the AC50 is 0.002 µM [falling, full curve, poor fit].

As to `COc1cc2c(C(=O)NCc3ccccn3)cn(CC(C)C)c(=O)c2cc1OC`, the AC50 was 35.5 µM [falling, single point].

Consider `CCOC(=O)c1nnc(-c2ccccc2)o1`, for which the half-maximal activity concentration (AC50) is 1.26 µM [falling, full curve, poor fit].

On to `COc1ccc(-c2nc(CCNC(=O)c3ccco3)cs2)cc1OC`, for which the AC50 was 22.4 µM [falling, partial curve, poor fit].

Turning to `Cn1c(=O)cc(SCC(=O)N2CCOCC2)c2ccc(Cl)cc21`, the AC50 is 14.1 µM [rising, partial curve, poor fit].

`Cc1nn(-c2ccccc2)c(C)c1/C=N/NC(=O)CSc1nc2ccccc2c(=O)n1-c1ccc(Br)cc1`: the half-maximal activity concentration (AC50) is 5.01 µM [falling, single point].

Take `COCCN(C(=O)CNC(=O)c1ccco1)C(C(=O)NC1CCCCC1)c1cccs1` (stereo not given): the AC50 is 0.0794 µM [falling, full curve, poor fit].

As for `CCOC(=O)c1cccc(NC(=O)CSc2nnnn2CC)c1`, the AC50 was 6.31 µM [falling, partial curve, poor fit].

In the case of `COc1ccc(OC)c(-n2c(-c3ccc(C)cc3)n[nH]c2=S)c1`, the AC50 is 3.98 µM [rising, partial curve, poor fit].

As for `COc1cccc(C2=NN(C(=O)c3ccccc3)C(O)(C(F)(F)F)C2)c1` (stereo not given), the concentration at half-maximal activity (AC50) was 20 µM [falling, single point].

With `COc1ccc(OCc2nc(C#N)c(NCc3ccccc3Cl)o2)cc1`, the AC50 was 0.0141 µM [rising, full curve, poor fit].

As for `CCOC(=O)C(NCc1ccc2c(c1)OCO2)(NC(=O)CC)C(F)(F)F` (stereo not given), the AC50 was 6.31 µM [rising, partial curve, poor fit].

For the molecule `O=C(CCS(=O)(=O)c1ccc(Br)s1)NCc1ccc2c(c1)OCO2`, the AC50 is 0.01 µM [rising, full curve, poor fit].

As to `Cn1cnnc1Sc1nc2ccccc2nc1NS(=O)(=O)c1ccccc1`, the concentration at half-maximal activity (AC50) is 0.00501 µM [rising, full curve, poor fit].

For the molecule `CC(=O)[C@@H]1[C@H]2[C@H](C(=O)[C@H]3OC[C@@H]2O3)[C@H]2C=Cc3ccccc3N21`, the concentration at half-maximal activity (AC50) was 25.1 µM [falling, partial curve, poor fit].

For the molecule `COC(=O)Cn1c(=NC(=O)C(C)C)sc2c(C)cc(C)cc21`, the AC50 was 12.6 µM [falling, partial curve].

Consider `CC(=O)Oc1ccc2oc(/C=C/N(C)C)c([N+](=O)[O-])c2c1`, for which the AC50 was 15.8 µM [falling, single point].

In the case of `CC(C)n1cnc2cc(NCc3ccccn3)ccc21`, the AC50 was 6.31 µM [falling, single point].

As to `O=C(CCSc1nnc2ccc3ccccc3n12)Nc1ccc(F)cc1`, the AC50 is 31.6 µM [rising, single point].

Turning to `CCOC(=O)c1sc(NC(=O)Cn2nnc3sc4c(c3c2=O)CCCC4)nc1C`, the AC50 is 0.0316 µM [rising, full curve, poor fit].

For the molecule `CCCCC(CC)C(=O)Nc1ccc(Cl)cn1` (stereo not given), the AC50 was 0.01 µM [falling, full curve].

Turning to `Cc1cc(/C=N/n2c(COc3ccccc3C)nc3ccccc3c2=O)c(O)c([N+](=O)[O-])c1`, the AC50 was 0.01 µM [rising, full curve, poor fit].

Regarding `COC(=O)c1ccc2c(c1)NC(=O)C(N1CCCCC1)S2` (stereo not given), the AC50 was 0.00501 µM [rising, full curve, poor fit].

As for `COc1ccc(/C=C/C(=O)OCc2cc(=O)n3c(n2)sc2ccccc23)cc1`, the AC50 is 5.01 µM [rising, single point].

Take `Cn1nc(CC(=O)Nc2ccc3c(c2)CCC3)c2ccccc2c1=O`: the AC50 was 0.0631 µM [rising, partial curve, poor fit].

`CCCC(=O)Nc1nc2ccc(NC(=O)c3cccnc3)cc2s1`: the AC50 was 0.501 µM [rising, full curve, poor fit].

Turning to `CCOc1ccccc1/C=N/Nc1ccccc1[N+](=O)[O-]`, the AC50 is 3.98 µM [rising, single point].

Turning to `O=C(c1ccco1)n1nc(-c2ccccc2)nc1NCc1ccccc1Cl`, the AC50 was 31.6 µM [rising, single point].

Regarding `O=C(NCc1ccc(F)cc1)c1cc(S(=O)(=O)N2CCOCC2)ccc1F`, the AC50 was 3.16 µM [falling, partial curve, poor fit].

For the molecule `O=C(NCC(=O)N(Cc1cccs1)C(C(=O)NC1CCCCC1)c1ccncc1)c1ccco1` (stereo not given), the AC50 was 0.158 µM [rising, single point].

In the case of `O=C(Nc1ccc(NC(=O)c2ccco2)nc1)c1ccccn1`, the AC50 is 0.2 µM [rising, partial curve, poor fit].

For the molecule `O=C(COC(=O)c1cccnc1SCC(=O)NCc1ccccc1)NCc1ccccc1`, the half-maximal activity concentration (AC50) is 31.6 µM [rising, partial curve].

For `COc1cccc(-n2c(=O)c3cc(OC)c(OC)cc3n(CC(=O)Nc3ccccc3)c2=O)c1`, the half-maximal activity concentration (AC50) was 0.0562 µM [falling, full curve, poor fit].
